Source: PubChem BioAssay AID540276 (National Center for Advancing Translational Sciences (NCATS), 2011)
Screen size: about 300,000 compounds; about 5,400 (1.8%) were called active. This list was built around the results that the source calls inconclusive (neither active nor inactive); the mix of calls is not that of the screen. Calls follow the shape of the full dose curve; tested in HEK293 cells. Potencies of inconclusive entries are doubtful fits and often do not repeat.

Assay: qHTS for inhibitors of binding or entry into cells for Marburg Virus
Details: Marburg virus pseudotyped entry inhibition, cell reporter; series mostly up to 37.8 µM
Potency is read from the fitted curve at half-maximal effect.

| Structure (SMILES) | Potency |
| --- | --- |
| Cc1nnc2ccc(-c3cccc(NC(=O)c4ccc(Cl)nc4)c3)nn12 | inconclusive: 31.6 µM [inhibitor, single point] |
| Cc1ccc(C(=O)O/N=C(\N)c2ccccn2)cc1 | inconclusive: 1.12 µM [inhibitor, full curve, poor fit] |
| COc1ccc(C(=O)Nn2c(SCC(=O)N3CCC(C)CC3)nc3ccccc3c2=O)cc1 | active: 1.64 µM |
| CCN(CC)c1ccc(-c2nc3cnccc3n2C)cc1 | inconclusive: 1.26 µM [activator, single point] |
| Cc1ccc(Oc2nnc(-c3cccs3)c3ccccc23)cc1C | inconclusive: 6.31 µM [activator, single point] |
| CCn1ncc(Br)c1C(=O)Nc1ccn(C23CC4CC(CC(C4)C2)C3)n1 | inconclusive: 12.6 µM [inhibitor, partial curve, poor fit] |
| Cc1cccc(NC(=S)N2CCCC2)c1 | inconclusive: 2.51 µM [activator, single point] |
| Cc1cc(-c2nnc(-c3cccc(C(F)(F)F)c3)o2)no1 | inactive |
| O=C(COC(=O)c1ccc2ncsc2c1)Nc1cccc(Cl)c1 | inconclusive: 31.6 µM [activator, single point] |
| O=C(C#Cc1ccccc1)c1cccc([N+](=O)[O-])c1 | active: 12.6 µM |
| Cc1ccc(CSc2nnc3nc(C)cc(C)n23)cc1 | inconclusive: 0.447 µM [activator, full curve, poor fit] |
| O=C1NC(=Nc2ccccc2Cl)S/C1=C\c1cccc([N+](=O)[O-])c1 | inconclusive: 35.5 µM [inhibitor, partial curve, poor fit] |
| CC1CN(CC(=O)Nc2nc3ccccc3s2)CC(C)O1 (stereo not given) | inactive |
| CCCCOc1ccc(C(=O)NCC(=O)OCC(=O)c2c(N)n(C)c(=O)n(C)c2=O)cc1 | inconclusive: 12.6 µM [activator, single point] |
| CN1CCN(C(=O)/C=C/c2cn(-c3ccccc3)nc2-c2ccc3c(c2)OCCO3)CC1 | active: 20.6 µM |
| CCOc1ccc(NC(=O)c2ccc(NS(=O)(=O)c3cccs3)cc2)cc1 | inactive |
| Cc1c(CN2CCC(n3nccc3NC(=O)C3CCOC3)CC2)[nH]c2ccccc12 (stereo not given) | inactive |
| CC(=O)N1CCN(CCS(=O)(=O)c2ccc(Br)cc2)CC1 | inactive |
| N#Cc1c(C(F)(F)F)cc(=O)n2c1[nH]c1ccccc12 | inconclusive: 20 µM [inhibitor, single point] |
| COc1ccc(C(=O)N/N=C(\C)CC(=O)Nc2ccc3c(c2)OCO3)cc1 | inconclusive: 0.0891 µM [inhibitor, full curve, poor fit] |

Part of the list above in order of molecular weight, largest number first.

| Structure (SMILES) | Potency |
| --- | --- |
| CCCCOc1ccc(C(=O)NCC(=O)OCC(=O)c2c(N)n(C)c(=O)n(C)c2=O)cc1 | inconclusive: 12.6 µM [activator, single point] |
| O=C1NC(=Nc2ccccc2Cl)S/C1=C\c1cccc([N+](=O)[O-])c1 | inconclusive: 35.5 µM [inhibitor, partial curve, poor fit] |
| Cc1ccc(CSc2nnc3nc(C)cc(C)n23)cc1 | inconclusive: 0.447 µM [activator, full curve, poor fit] |
